# Reference: PubChem BioAssay AID1508588 (Peter MacCallum Cancer Centre, 2020)
# Test: 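Which gene losses make BRAF-mutant melanoma cells more responsive to vemurafenib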 (primary screen)
# System: human WM266.4 melanoma cells (BRAF V600 mutant)
# Reagents: siRNA pool against human genes, 40 nM
# Duration: 96 h from transfection to read-out
# Treatment: vemurafenib 300 nM (about IC25), added 48 h after transfection, for 48 h; comparison arm got DMSO vehicle only
# Detection: 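Ratios to non-targeting siRNA for cell gain, counted as DAPI nuclei after minus before drug and averaged over two replicates, and for absorbance-read medium lactate per cell; both binned into fold-change classes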
# Direction: cell gain with vemurafenib: higher = more cell gain than with non-targeting siRNA; lactate per cell with vemurafenib: higher = more lactate made per cell
# Call rule: 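Enhancement is called by pairing each knock-down's vehicle-arm and drug-arm fold-change classes for viability or glycolysis; which class combinations qualify is not given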
# Calls: active = enhances vemurafenib effect; inactive = no enhancement seen
# Here is an unselected part of about 18,000 reagents. In the full data, 790 (4.4%) got an active call. 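Calls rest on a combination of fold-change classes in drug and vehicle arms, not all shown here.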 Entries without a mark were called inactive. Reagents against one gene are numbered here.
gene symbol,pool no.,cell gain with vemurafenib,lactate per cell with vemurafenib
DLGAP2 (DLG associated protein 2),1,0.81,0.79
UEVLD (UEV and lactate/malate dehyrogenase domains),1,0.07,0.76
DUOXA1 (dual oxidase maturation factor 1),1,0.35,1.19
SLC25A23,1,0.75,1.54
NOCT (nocturnin),1,0.39,0
TRIM13 (tripartite motif containing 13),1,1.11,0.48
DUOXA2 (dual oxidase maturation factor 2),1,0.55,1.07
CENPC (centromere protein C),1,0.39,1.01
CHRM1 (cholinergic receptor muscarinic 1),1,0.79,0.8
KCNJ6 (potassium inwardly rectifying channel subfamily J member 6),1,0.78,1.04
TOR1A (torsin family 1 member A),1,0.64,1.2
MYO3B (myosin IIIB),1,0.35,0.62
PRPSAP1 (phosphoribosyl pyrophosphate synthetase associated protein 1),1,-0.04,1
CRYAA (crystallin alpha A),1,0.63,1.18
MINDY4 (MINDY lysine 48 deubiquitinase 4),1,0.37,1.05
PRND (prion like protein doppel),1,0.2,1.41
CASP4 (caspase 4),1,0.74,0.56
UBR4 (ubiquitin protein ligase E3 component n-recognin 4),1,0.07,0.73
FLT3LG (fms related receptor tyrosine kinase 3 ligand),1,0.46,1.05
SLC28A3,1,1,1.4
FHOD1 (formin homology 2 domain containing 1),1,0.68,0.99
C8B (complement C8 beta chain),1,0.2,1.14
PIGG,1,0.79,0.8
OR8U1 (olfactory receptor family 8 subfamily U member 1),1,0.68,1.15
AKAP5 (A-kinase anchoring protein 5),1,0.89,0.61
CNGA2 (cyclic nucleotide gated channel subunit alpha 2),1,0.53,1.09
ACOT2 (acyl-CoA thioesterase 2),1,0.48,0.32
FZD7 (frizzled class receptor 7),1,0.22 (active),0.41
LMNB1 (lamin B1),1,0.3,0.69
NLRP13 (NLR family pyrin domain containing 13),1,0.92,0.7
FXYD6 (FXYD domain containing ion transport regulator 6),1,0.59,0.79
XAGE2 (X antigen family member 2),1,0.49,0.82
SCAI (suppressor of cancer cell invasion),1,0.96,0.71
BOLA2B (bolA family member 2B),1,0.66,1.29
EGLN1 (egl-9 family hypoxia inducible factor 1),1,0.39,1.56
RIOK2 (RIO kinase 2),1,0.34,1.5
MTARC1 (mitochondrial amidoxime reducing component 1),1,0.63,0.95
SULT2A1 (sulfotransferase family 2A member 1),1,0.59,0.92
SMDT1 (single-pass membrane protein with aspartate rich tail 1),1,1.12,0.86
BTG3 (BTG anti-proliferation factor 3),1,1.4,0.7
CDY1B (chromodomain Y-linked 1B),1,0.38,1.96
GULP1 (GULP PTB domain containing engulfment adaptor 1),1,0.82,0.9
"NGRN (neugrin, neurite outgrowth associated)",1,0.53,2.08
ZMYND19 (zinc finger MYND-type containing 19),1,0.91,1
MAGEB3 (MAGE family member B3),1,0.82,1.02
ABCB10 (ATP binding cassette subfamily B member 10),1,0.38,1.2
HIP1 (huntingtin interacting protein 1),1,0.6,1.25
RPS2 (ribosomal protein S2),1,-0.03,3.64
SLCO1B7,1,0.51,0.75
ANKRD12 (ankyrin repeat domain 12),1,0.77,0.97
AIF1 (allograft inflammatory factor 1),1,0.52,0.7
FAM27E5 (family with sequence similarity E5),1,0.5,1.05
CHRM3 (cholinergic receptor muscarinic 3),1,0.64,1.19
LRRIQ1 (leucine rich repeats and IQ motif containing 1),1,1.65,0.77
CHCHD4 (coiled-coil-helix-coiled-coil-helix domain containing 4),1,0.64,0.52
DOK7 (docking protein 7),1,0.85,0.96
NDE1 (nudE neurodevelopment protein 1),1,-0.06,1.42
UGT1A8 (UDP glucuronosyltransferase family 1 member A8),1,0.77,0.68
MAGEH1 (MAGE family member H1),1,0.8,1
OGFOD2,1,0.79,0.66
TIGD2 (tigger transposable element derived 2),1,1.11,0.38
"HLA-DRA (major histocompatibility complex, class II, DR alpha)",1,0.77,1.46
RCC1 (regulator of chromosome condensation 1),1,0.39,0.92
RCC1 (regulator of chromosome condensation 1),2,0.77,0.77
ELMOD1 (ELMO domain containing 1),1,0.5,1.05
ELMOD1 (ELMO domain containing 1),2,0.66,0.58
SVOP (SV2 related protein),1,0.96,0.42
GMPS (guanosine monophosphate synthase),1,0.69,0.6
HOXD12 (homeobox D12),1,0.21,0.73
LPAL2 (lipoprotein(a) like 2 (pseudogene)),1,0.52,1.21
ZNF383 (zinc finger protein 383),1,0.71,0.42
"RBBP8 (RB binding protein 8, endonuclease)",1,0.16,1.54
ARFGAP1 (ARF GTPase activating protein 1),1,0.25,1.26
ZMYND10 (zinc finger MYND-type containing 10),1,1,0.6
TOMM20 (translocase of outer mitochondrial membrane 20),1,0.36,0.5
ANKMY1 (ankyrin repeat and MYND domain containing 1),1,0.44,0.91
"PPM1E (protein phosphatase, Mg2+/Mn2+ dependent 1E)",1,0.68,0.48
GJA10 (gap junction protein alpha 10),1,0.76,0.76
LRRC37A2 (leucine rich repeat containing 37 member A2),1,0.96,1.23
TTC6 (tetratricopeptide repeat domain 6),1,0.82,1.08
BTBD8 (BTB domain containing 8),1,0.74,0.6
LIPK (lipase family member K),1,0.63,0.78
LRRTM3 (leucine rich repeat transmembrane neuronal 3),1,0.48,1.15
MYLK3 (myosin light chain kinase 3),1,0.66,1.29

Records listed above marked active (1):
gene symbol,pool no.,cell gain with vemurafenib,lactate per cell with vemurafenib
FZD7 (frizzled class receptor 7),1,0.22 (active),0.41
